Test results published in PMC5996148.
Values joined by “and” are separate entries in the source; they are usually repeats but may differ in a detail not shown here. Equal entries are not always repeated. Some of the results follow.

Key:
Experiment in all cases: protein microarray (ProtoArray v5.0), streptavidin-Alexa Fluor 647
Settings in all cases: 3'-biotin; 20 mM Tris (pH 7.5), 5 mM MgCl2, 100 mM KCl, 0.1% Tween-20, A/T-rich and random oligonucleotide blockers; temperature not stated; high values mean tight binding
[1] = test system: 40S ribosomal protein SA (human)
5 (human) = test system: 5 (human)
6 (human) = test system: 6 (human)
[2] = test system: 6-pyruvoyl tetrahydrobiopterin synthase (human)
[3] = test system: A-kinase anchor protein 14 (human)
[4] = test system: A.T hook DNA-binding motif-containing protein 1 (human)
AAAS (human) = test system: AAAS (human)
AASDHPPT (human) = test system: AASDHPPT (human)
ABCF3 (human) = test system: ABCF3 (human)
ABHD10 (human) = test system: ABHD10 (human)

## GGGAGGCTGAGGCAGG [G4-1 biotinylated (PQS2)]
[1]
  binding signal: -0.355 z-score and -0.294 z-score
5 (human)
  binding signal: -0.338 z-score
6 (human)
  binding signal: -0.284 z-score
[2]
  binding signal: -0.34 z-score
[3]
  binding signal: -0.347 z-score
[4]
  binding signal: -0.344 z-score
AAAS (human)
  binding signal: -0.298 z-score
AASDHPPT (human)
  binding signal: -0.333 z-score
ABCF3 (human)
  binding signal: -0.279 z-score
ABHD10 (human)
  binding signal: -0.308 z-score
